Data taken from article PMC5447282.
Results are given in words; binding and its absence hold for the method and conditions named. In cells and extracts the contact can be indirect. Some results given as binding are weak or reduced against the parent protein; the word gives no strength.

Chains of the proteins cited; added tags and fusions are not shown.
UniProt Q13330: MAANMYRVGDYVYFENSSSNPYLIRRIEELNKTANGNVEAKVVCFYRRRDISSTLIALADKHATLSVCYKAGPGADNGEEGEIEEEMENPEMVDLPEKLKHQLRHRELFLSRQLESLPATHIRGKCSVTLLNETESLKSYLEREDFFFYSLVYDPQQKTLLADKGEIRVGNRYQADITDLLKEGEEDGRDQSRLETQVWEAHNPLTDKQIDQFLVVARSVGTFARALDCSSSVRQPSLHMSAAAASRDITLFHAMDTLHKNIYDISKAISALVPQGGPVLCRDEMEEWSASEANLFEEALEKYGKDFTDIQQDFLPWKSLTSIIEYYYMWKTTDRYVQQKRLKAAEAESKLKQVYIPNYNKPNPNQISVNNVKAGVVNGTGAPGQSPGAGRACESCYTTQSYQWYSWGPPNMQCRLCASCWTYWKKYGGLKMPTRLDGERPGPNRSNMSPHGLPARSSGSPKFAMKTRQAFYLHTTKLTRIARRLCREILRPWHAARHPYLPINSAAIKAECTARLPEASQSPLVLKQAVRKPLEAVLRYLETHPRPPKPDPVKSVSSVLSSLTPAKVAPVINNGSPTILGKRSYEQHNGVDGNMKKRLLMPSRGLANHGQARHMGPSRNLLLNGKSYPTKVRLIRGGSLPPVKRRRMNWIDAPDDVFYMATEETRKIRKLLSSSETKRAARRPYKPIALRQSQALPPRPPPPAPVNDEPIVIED
UniProt Q16665: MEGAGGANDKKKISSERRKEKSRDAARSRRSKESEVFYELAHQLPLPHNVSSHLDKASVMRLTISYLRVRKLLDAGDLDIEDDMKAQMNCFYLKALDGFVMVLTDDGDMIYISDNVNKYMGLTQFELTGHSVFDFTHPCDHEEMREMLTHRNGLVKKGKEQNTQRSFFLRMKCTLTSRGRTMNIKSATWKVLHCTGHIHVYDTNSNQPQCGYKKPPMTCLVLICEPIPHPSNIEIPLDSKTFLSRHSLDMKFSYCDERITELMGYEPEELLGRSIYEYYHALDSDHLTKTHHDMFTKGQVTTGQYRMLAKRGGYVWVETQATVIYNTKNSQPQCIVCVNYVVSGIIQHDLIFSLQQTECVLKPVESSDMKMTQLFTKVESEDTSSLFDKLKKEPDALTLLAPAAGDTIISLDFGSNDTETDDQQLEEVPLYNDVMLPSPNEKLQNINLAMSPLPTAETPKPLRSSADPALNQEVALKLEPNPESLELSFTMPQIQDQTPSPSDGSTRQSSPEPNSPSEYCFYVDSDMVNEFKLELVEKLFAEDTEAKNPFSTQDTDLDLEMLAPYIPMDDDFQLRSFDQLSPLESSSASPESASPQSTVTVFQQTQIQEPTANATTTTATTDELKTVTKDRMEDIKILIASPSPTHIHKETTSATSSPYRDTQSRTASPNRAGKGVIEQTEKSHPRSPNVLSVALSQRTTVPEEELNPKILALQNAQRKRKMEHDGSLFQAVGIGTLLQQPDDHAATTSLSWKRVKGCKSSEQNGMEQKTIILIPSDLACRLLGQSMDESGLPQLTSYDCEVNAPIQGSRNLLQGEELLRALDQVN

Legend:
[1] = target: Flag-MTA1 (metastasis-associated protein 1) (UniProt Q13330); assay: co-IP; anti-Flag immunoprecipitation from MTA1-Flag-HepG2 cells transiently transfected with HIF-1α-HA; cells untreated or exposed to hypoxia (1% O2) for 4 h; binding told for hypoxic conditions
[2] = target: GST-MTA1 (UniProt Q13330); assay: pull-down; 1 μg GST-MTA1 immobilized on glutathione sepharose beads incubated with [35S]methionine-labeled in vitro translated HIF-1α in modified GBT buffer (10% glycerol, 50 mM Hepes-NaOH pH 7.5, 170 mM KCl, 7.5 mM MgCl2, 0.1 mM EDTA, 0.1 mM DTT, 1% Triton X-100), 4°C, 3 h; only the target …

binding [1]	binding [2]	Substance
binds		endogenous HIF-1α (hypoxia-inducible factor-1α) (from UniProt Q16665 1-826)
binds		HIF-1α-HA (exogenous hypoxia-inducible factor-1α) (from UniProt Q16665 1-826)
	binds	in vitro translated HIF-1α (from UniProt Q16665 1-826)
